# PubChem BioAssay AID504834 (National Center for Advancing Translational Sciences (NCATS), 2011)
# The campaign covered roughly 320,000 compounds. About 22,000 (6.9%) were called active. Inconclusive means that the source gave no clear call. Such entries were picked first, then a sample of the others. Calls come from the whole dose curve; as a rule, active = well fitted inhibition curve with a large enough effect; inconclusive = small, poorly fitted or top-dose-only effect, or another doubt; inactive = no such curve, though single readings can be large or run the other way. Potencies of inconclusive entries are doubtful fits and often do not repeat.
# Assay: Primary qHTS for delayed death inhibitors of the malarial parasite plastid, 96 hour incubation
# Conditions: P. falciparum luciferase reporter growth; series mostly up to 28.7 µM
# Summary of the method: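 Two parasite generations (96 h, 37 C, 5% CO2) of compound exposure in infected erythrocytes (0.05% parasitemia, 2% hematocrit). Luciferase-reporter P. falciparum; decreased luminescence indicates inhibited growth, aimed at apicoplast-acting delayed death.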
# Potency is the fitted concentration of half-maximal effect.
row,Structure (SMILES),Potency
1,CC(C)(C)OC(=O)N1CCC(c2c(C(=O)O)cnn2-c2ccc(Cl)cc2)CC1,"inconclusive: 13.1 µM [inhibitor, partial curve, poor fit]"
2,CCC(C)NC(=O)c1c(N)n(/N=C/c2cccs2)c2nc3ccccc3nc12 (stereo not given),active: 10.4 µM
3,Cn1c(O)c(N=NC(=O)CNC(=O)c2cccnc2)c2ccccc21,inactive
4,Cc1cc(C(=O)COC(=O)c2ccc(CO)cc2)c(C)n1CC1COc2ccccc2O1 (stereo not given),"inconclusive: 5.22 µM [inhibitor, partial curve]"
5,Cc1ccccc1NC(=O)c1ccc(CSc2ncccn2)cc1,"inconclusive: 0.0029 µM [inhibitor, full curve, poor fit]"
6,COc1ccc(S(=O)(=O)N2CCC(C(=O)N3CCc4ccccc4C3)CC2)cc1C,"inconclusive: 0.415 µM [inhibitor, full curve, poor fit]"
7,CCCOc1ccccc1C1CC(=O)NC(C)=C1C(=O)OCC(C)C (stereo not given),inactive
8,CC1=C(C(=O)OCCOc2ccccc2)C(c2ccsc2)NC(=O)N1C (stereo not given),"inconclusive: 4.15 µM [inhibitor, single point]"
9,CCOc1ccccc1C(=O)NC1CCN(Cc2ccccc2)CC1,"inconclusive: 10.4 µM [inhibitor, partial curve, poor fit]"
10,CC1(C)CC(=O)C=C(NCCN2CCN(C(=S)NC3CCCCC3)CC2)C1,inactive
11,COc1ccc(COC(=O)C2=C(C)NC(=O)NC2c2cccc(Br)c2)cc1 (stereo not given),"inconclusive: 18.5 µM [inhibitor, single point]"
12,O=C(NC1CCS(=O)(=O)C1)c1ccc(Br)o1 (stereo not given),inactive
13,COc1cc2c(cc1OC)CN(C1CC(=O)N(c3c(C)cccc3C)C1=O)CC2 (stereo not given),"inconclusive: 18.5 µM [inhibitor, single point]"
14,Fc1ccc(CSc2ncnc3scc(-c4ccccc4)c23)cc1,"inconclusive: 4.65 µM [inhibitor, partial curve]"
15,C=CC(c1ccccc1)C(C(=O)c1ccccc1)N(C)C (stereo not given),"inconclusive: 2.33 µM [inhibitor, single point]"
16,O=C(CCCn1cc([N+](=O)[O-])cn1)N1CCCCC1,"inconclusive: 5.22 µM [inhibitor, partial curve, poor fit]"
17,CCOc1cc(/C=C2/NC(=O)N(CC(=O)Nc3cccc(C)c3)C2=O)ccc1OCC(N)=O,"inconclusive: 10.4 µM [inhibitor, single point]"
18,O=C(CN1CCOCC1)Nc1ccc(NC(=O)c2ccccc2F)cc1,inactive
19,O=C(NC1CCCC1)C1CCC(=O)N1C1CCCCC1 (stereo not given),"inconclusive: 18.5 µM [inhibitor, single point]"
20,Cn1c(=O)c2c(nc(CN3CCOCC3)n2CCCO)n(C)c1=O,"inconclusive: 1.47 µM [inhibitor, full curve, poor fit]"
21,OCC[C@@H]1C[C@H](O)[C@@H](O)[C@]2(OCc3ccccc32)O1,"inconclusive: 4.15 µM [inhibitor, single point]"
22,CCC1CCCCN1S(=O)(=O)c1ccc(S(=O)(=O)N2CCN(S(=O)(=O)CC)CC2)cc1 (stereo not given),"inconclusive: 11.7 µM [inhibitor, single point]"
23,CCOc1ccccc1-c1cc(C(=O)Nc2ccc(C(=O)O)cc2)c2ccccc2n1,active: 10.4 µM
24,COCCn1c(=O)[nH]c2cc(C(=O)Nc3cccc(F)c3)ccc2c1=O,"inconclusive: 18.5 µM [inhibitor, single point]"

row,Structure (SMILES),Potency
2,c1cnc2c(Oc3ncnc4sccc34)cccc2c1,inactive
3,COc1ccc(-c2nn(-c3ccccc3)cc2/C=N/NC(=S)NC(C)C)cc1OC,"inconclusive: 6.57 µM [inhibitor, partial curve, poor fit]"
4,COc1cc(/C=N/NC(=O)C(=O)/C=C2\NC(C)(C)Cc3ccccc32)ccc1O,"inconclusive: 2.08 µM [inhibitor, full curve, poor fit]"
5,C#CCN1C(C)=C(C(=O)OC)C(c2cccc([N+](=O)[O-])c2)C(C(=O)OCC)=C1C (stereo not given),"inconclusive: 1.17 µM [inhibitor, partial curve]"
6,CCN1CCN(c2nc(Nc3ccc(C)c(C)c3)nc(N)c2[N+](=O)[O-])CC1,"inconclusive: 10.4 µM [inhibitor, single point]"
7,O=C(NCCN1CCOCC1)c1cc(-c2ccc(Cl)c(Cl)c2)on1,inactive
8,Cc1ccc(-c2onc3ccc(C=O)cc23)cc1,inactive
9,O=C(NC1CCS(=O)(=O)C1)c1cccc(Br)c1 (stereo not given),inactive
10,O=C(c1cc2cc(F)ccc2[nH]1)N1CCC2(CC1)OCCO2,"inconclusive: 18.5 µM [inhibitor, single point]"
11,C=CC[C@]12CCc3ccccc3C1N(c1ccc(C(=O)OCC)cc1)C2=O (stereo not given in full),"inconclusive: 6.57 µM [inhibitor, partial curve, poor fit]"
12,CCN1C(=O)[C@H]2[C@@H](c3ccc(SC4CCCCC4)c(OC)c3)N3CCCC[C@@]3(C(=O)OC)[C@H]2C1=O,active: 11.7 µM
13,O=C(Nc1cccc(/C=C/c2ccccn2)c1)c1cc(Cl)ccn1,inactive
14,COc1ccc(-c2nn(-c3ccccc3)cc2CNCc2cccnc2)c(F)c1,inactive
15,Cc1ncc([N+](=O)[O-])n1CC(=O)N/N=C/c1ccccc1F,inactive
16,COC(=O)NCC(c1cccnc1)N1CCN(c2ccccc2)CC1 (stereo not given),inactive
17,CCOC(=O)c1sc(NCC2CCCO2)nc1C (stereo not given),"inconclusive: 18.5 µM [inhibitor, single point]"
18,CCNC(=S)N(CCc1c(C)[nH]c2ccc(Cl)cc12)Cc1cccnc1,"inconclusive: 5.22 µM [inhibitor, partial curve, poor fit]"
19,CCOC(=O)N1C/C(=C\c2ccccc2)C(=O)/C(=C/c2ccccc2)C1,"inconclusive: 4.15 µM [inhibitor, single point]"
20,COc1ccc(S(=O)(=O)N2CCOCC2)cc1NC(=O)c1c(-c2ccccc2)noc1C,active: 10.4 µM
21,O=C1CSC(=S)N1/N=C/c1cc(Br)c(O)c(Br)c1,"inconclusive: 18.5 µM [inhibitor, single point]"
22,CCOc1ccc(NC(=O)CN(C)C(=O)c2c(C)nn(-c3ccccc3)c2Cl)cc1OCC,inactive
23,CN(C)c1ccc(C(=O)OCC(=O)N2CCOCC2)cc1,inactive
24,CCOC(=O)c1c(S(=O)(=O)N2c3ccccc3CC2C)c(C)n(C)c1C (stereo not given),"inconclusive: 18.5 µM [inhibitor, single point]"

# 3 structures from above, sorted by count of non-hydrogen atoms, smallest number first:
row,Structure (SMILES),Potency
14,Fc1ccc(CSc2ncnc3scc(-c4ccccc4)c23)cc1,"inconclusive: 4.65 µM [inhibitor, partial curve]"
11,COc1ccc(COC(=O)C2=C(C)NC(=O)NC2c2cccc(Br)c2)cc1 (stereo not given),"inconclusive: 18.5 µM [inhibitor, single point]"
13,COc1cc2c(cc1OC)CN(C1CC(=O)N(c3c(C)cccc3C)C1=O)CC2 (stereo not given),"inconclusive: 18.5 µM [inhibitor, single point]"

# Continued.

row,Structure (SMILES),Potency
1,CC1CCC(NC(=O)CCS(=O)(=O)c2ccc3c(c2)NC(=O)CS3)CC1 (stereo not given),"inconclusive: 0.928 µM [inhibitor, partial curve, poor fit]"
2,CCN(CC)S(=O)(=O)c1ccc(C)c(NC(=O)CN2CCN(C)CC2)c1,inactive
3,Cc1[nH]c2c(C)cccc2c(=O)c1CN1CCCCCC1,"inconclusive: 6.57 µM [inhibitor, partial curve, poor fit]"
4,O=C(Cc1c(Cl)cccc1Cl)OCC(=O)N1CCc2ccccc2C1,"inconclusive: 13.1 µM [inhibitor, single point]"
5,O=C1C2CCCCC2C(=O)N1c1nccs1 (stereo not given),"inconclusive: 18.5 µM [inhibitor, single point]"
6,N#Cc1cnc2c(-c3ccccc3)c(-c3ccccc3)nn2c1N,"inconclusive: 18.5 µM [inhibitor, partial curve, poor fit]"
7,O=C(NNS(=O)(=O)c1ccccc1)c1cccs1,"inconclusive: 1.65 µM [inhibitor, full curve, poor fit]"
8,C[C@]12CC[C@@H]3c4ccc(O[C@@H]5O[C@H](C(=O)O)[C@@H](O)[C@H](O)[C@H]5O)cc4CC[C@H]3[C@@H]1C[C@@H](O)[C@@H]2O,inactive
9,Brc1ccc(-c2nc(-c3cccnc3)no2)o1,"inconclusive: 4.15 µM [inhibitor, full curve, poor fit]"
10,C=C(C)Cn1c(CCNC(=O)CCC)nc2ccccc21,"inconclusive: 14.7 µM [inhibitor, partial curve, poor fit]"
11,OCCN1CCN(Cc2cc(Br)cc(Br)c2O)CC1,inactive
12,O=C(COC(=O)Cn1cnc2ccccc2c1=O)Nc1ccccc1Sc1ccc(Cl)cc1,inactive
13,COc1ccc(N2CCN(CC(=O)c3ccccc3)CC2)cc1,inactive
14,Cn1c(=O)cc2c3c(c(N4CCCCC4)ccc31)C(=O)c1ccccc1-2,inactive
15,COCCc1nc2ccc(C(=O)N(C)Cc3cccc(-n4nc(C)cc4C)c3)cc2o1,"inconclusive: 10.4 µM [inhibitor, partial curve, poor fit]"
16,CCOCCn1c(CN(Cc2ccccc2)Cc2ccccc2)nc2c1c(=O)n(C)c(=O)n2C,active: 1.31 µM
17,COc1ccccc1/C=C1\SC(=S)N(CC(=O)NC2CCS(=O)(=O)C2)C1=O (stereo not given),"inconclusive: 18.5 µM [inhibitor, single point]"
18,COc1ccc(CCNC(=O)c2cc(-c3cc(Cl)ccc3O)n[nH]2)cc1OC,inactive
19,COc1ccc(N2C(=O)c3cccc4cccc(c34)C2=O)cc1,"inconclusive: 13.1 µM [inhibitor, single point]"
20,COc1ccccc1C(=O)NC(C)c1cccc2ccccc12 (stereo not given),inactive
21,CN1CCN(C(=O)C2CCN(S(=O)(=O)c3ccccc3[N+](=O)[O-])CC2)CC1,"inconclusive: 14.7 µM [inhibitor, single point]"
22,COc1ccc(-c2nnc(NC(=O)c3ccc(F)cc3)o2)cc1,"inconclusive: 3.29 µM [inhibitor, single point]"

# Exported with bars between the fields: two of the compounds above.
row | Structure (SMILES) | Potency
18 | COc1ccc(CCNC(=O)c2cc(-c3cc(Cl)ccc3O)n[nH]2)cc1OC | inactive
19 | COc1ccc(N2C(=O)c3cccc4cccc(c34)C2=O)cc1 | inconclusive: 13.1 µM [inhibitor, single point]
